Measured values reported in publication PMC7669825, “Escherichia coli RelA Regulation via Its C-Terminal Domain” (Frontiers in Microbiology, 2020).
These are yes or no findings as the source states them, for the method shown. Some results given as binding are weak or reduced against the parent protein; the word gives no strength. Sequences can lack the tags named with a protein.

Target: YG4-C638F (mutated YG4, His-tagged) (Escherichia coli) (UniProt P0AG20)
Assay: cross-linking; 10 ul with 12.5 mM Na phosphate pH 7.2, 12.5 mM NaCl, 2.5% glycerol, 1 x 10^-3% glutaraldehyde, 4 ug of protein; 15 min on ice; SDS-PAGE and Western blot with anti-His antibody; both purified

binding: binds weakly
B1: YG4-C638F (mutated YG4, His-tagged) (domain or fragment, UniProt P0AG20 564-744)
chain: FNKPSAEEQDAAALKQLQQKSYTPQNRSKDNGRVVVEGVGNLMHHIARCCQPIPGDEIVGFITQGRGISVHRADFEQLAELRSHAPERIVDAVWGESYSAGYSLVVRVVANDRSGLLRDITTILANEKVNVLGVASRSDTKQQLATIDMTIEIYNLQVLGRVLGKLNQVPDVIDARRLHGS
